Here are results for 53 molecules from the supplement of paper PMC6289059.

The other results are listed elsewhere or left out. Single values are uncertain, as repeats are few or missing.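 The cells are hepatocyte-like cells grown from human stem cells in which the DGUOK gene was disrupted by CRISPR, a model of liver mtDNA depletion syndrome. Each well's ATP signal was scored against the other wells on its plate, and a drug counted as a primary hit when its score was 3 or higher.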

The subject of the assay is DGUOK Δ14/Δ5 iPSC-derived hepatocyte-like cells (SV20). As to the kind of experiment: ATP level (CellTiter-Glo luminescence) Z score relative to plate distribution, under 2-DG glycolysis block; higher = more cellular ATP (rescue of mitochondrial ATP production). The conditions noted are these: 5 µM; treatment time: day 15 to day 20 of differentiation (5 days); 2-deoxy-D-glucose: 20 mM for 24 h before assay.
In the case of `NC(=O)N1c2ccccc2CC(=O)c2ccccc21`, the ATP level was inactive: -0.0651.

For the molecule `O=C(C=Cc1ccc(O)cc1)c1ccccc1O`, the ATP level was inactive: 0.68.

With `COc1cc2oc3cc(OC)c(OC)c(CC=C(C)C)c3c(=O)c2c(O)c1CC=C(C)C`, the ATP level is inactive: -0.876.

Regarding `CC(C)Cn1cnc2c(N)nc3ccccc3c21`, the ATP level was inactive: -2.04.

`CC(=O)OCC(=O)[C@@]1(O)[C@H](OC(C)=O)C[C@H]2[C@@H]3CCC4=CC(=O)C=C[C@]4(C)[C@@]3(F)[C@@H](O)C[C@@]21C`: the ATP level was inactive: 1.51.

Turning to `O=C1OC(=O)[C@H]2[C@@H]1[C@@H]1CC[C@H]2O1`, the ATP level was inactive: 2.19.

For `C[C@]12CCC3c4ccc(OS(=O)(=O)O)cc4CCC3C1CC[C@H]2O` (stereo partly drawn), the ATP level was inactive: 1.68.

Consider `CC(C)NC(=N)NC(=N)Nc1ccc(Cl)cc1`, for which the ATP level was inactive: 1.22.

As for `COc1ccc2c3c1O[C@H]1C[C@@H](O)C=C[C@@]31CCN(C)C2`, the ATP level was inactive: -0.581.

In the case of `CCCC(=O)O[C@]1(C(=O)CO)CC[C@H]2[C@@H]3CCC4=CC(=O)CC[C@]4(C)[C@H]3[C@@H](O)C[C@@]21C`, the ATP level was inactive: 1.73.

Take `CC1(C)S[C@@H]2[C@H](NC(=O)COc3ccccc3)C(=O)N2[C@H]1C(=O)O`: the ATP level was inactive: 0.575.

Take `Cc1nnc(SCC2=C(C(=O)O)N3C(=O)[C@@H](NC(=O)Cn4cnnn4)[C@H]3SC2)s1`: the ATP level was inactive: 2.28.

In the case of `O=c1[nH]c(=O)n([C@H]2C[C@H](O)[C@@H](CO)O2)cc1C(F)(F)F`, the ATP level is inactive: 0.296.

`C[C@H]1O[C@@H](O[C@H]2[C@@H](O)C[C@H](O[C@H]3[C@@H](O)C[C@H](O[C@H]4CC[C@@]5(C)[C@H](CC[C@@H]6[C@@H]5CC[C@]5(C)[C@@H](C7=CC(=O)OC7)CC[C@]65O)C4)O[C@@H]3C)O[C@@H]2C)C[C@H](O)[C@@H]1O`: the ATP level was inactive: -26.5.

For the molecule `CC(=O)CC(c1ccc([N+](=O)[O-])cc1)c1c(O)c2ccccc2oc1=O` (stereo not drawn), the ATP level is inactive: 1.36.

Take `CCCCCCCCNC(C)C(O)c1ccc(SC(C)C)cc1` (stereo not drawn): the ATP level is inactive: -14.1.

Consider `C=C(C)[C@@H]1CC[C@]2(C)CC[C@]3(C)[C@H](CC[C@@H]4[C@@]5(C)CC[C@H](O)C(C)(C)[C@@H]5CC[C@]43C)[C@@H]12`, for which the ATP level was inactive: 0.251.

As to `S=c1[nH]cnc2nc[nH]c12`, the ATP level was inactive: -0.893.

As to `COc1cc2c(cc1OC)[C@@H]1C(=O)c3ccc4c(c3O[C@@H]1CO2)C=CC(C)(C)O4`, the ATP level is inactive: -11.2.

Take `CC(C)[C@@H]1CC[C@@H](C)CC1=O`: the ATP level is inactive: 1.15.

`NCCCCN`: the ATP level was inactive: 0.959.

For `CC1=CC2C(CC1=O)C(C)=CCC2C(C)C` (stereo not drawn), the ATP level was inactive: 2.44.

Regarding `O=C(O)C[C@H](O)C[C@H](O)/C=C/c1c(C2CC2)nc2ccccc2c1-c1ccc(F)cc1`, the ATP level was inactive: 0.545.

`Cc1ccc(C)c(OCCCC(C)(C)C(=O)O)c1`: the ATP level was inactive: 1.23.

With `COC(=O)c1c(C)c2c(c(C)c1O)OC(=O)c1c(C)c(Cl)c(O)c(Cl)c1O2`, the ATP level is inactive: 2.41.

For the molecule `COc1cc2c(cc1OC)[C@@H]1Cc3ccc(OC)c(OC)c3CN1CC2`, the ATP level was inactive: -3.18.

With `NC(=O)c1ccc[n+]([C@@H]2O[C@H](COP(=O)([O-])OP(=O)(O)OC[C@H]3O[C@@H](n4cnc5c(N)ncnc54)[C@H](O)[C@@H]3O)[C@@H](O)[C@H]2O)c1`, the ATP level is active: 3.03.

Take `NCC(=O)CCC(=O)O`: the ATP level is inactive: 1.31.

On to `COc1ccc(CN(CCN(C)C)c2ncccn2)cc1`, for which the ATP level was inactive: -4.79.

Take `COc1c2ccoc2cc2oc(C)cc(=O)c12`: the ATP level is inactive: 0.565.

Consider `CCCCCC(=O)Cc1cc(O)cc(O)c1C(=O)Oc1cc(CC(=O)CCCCC)c(C(=O)O)c(OC)c1`, for which the ATP level was inactive: 0.428.

With `COc1ccc(-c2coc3cc(O)ccc3c2=O)c(O)c1O`, the ATP level is inactive: 0.51.

For the molecule `COCCOC(=O)C1=C(C)NC(C)=C(C(=O)OC(C)C)C1c1cccc([N+](=O)[O-])c1` (stereo not drawn), the ATP level is inactive: -8.76.

Consider `NCCS`, for which the ATP level was inactive: 2.21.

Consider `CN1C(C(=O)Nc2ccccn2)=C(O)c2ccccc2S1(=O)=O`, for which the ATP level is inactive: -12.4.

As to `COc1c(C)c2c(c(O)c1C/C=C(\C)CCC(=O)OCCN1CCOCC1)C(=O)OC2`, the ATP level was inactive: -1.48.

As to `C[C@]12CCC(=O)C=C1C=C[C@@H]1[C@@H]2CC[C@@]2(C)[C@H]1CC[C@@]21CCC(=O)O1`, the ATP level was inactive: -1.68.

For the molecule `CC1(C)[C@@H](O)CC[C@]2(C)[C@H]3C(=O)C=C4[C@@H]5C[C@@](C)(C(=O)O)CC[C@]5(C)CC[C@@]4(C)[C@]3(C)CC[C@@H]12`, the ATP level is inactive: -6.

As for `Cc1c(NC(C)C)c(=O)n(-c2ccccc2)n1C`, the ATP level was inactive: 1.42.

Turning to `CC(C[N+](C)(C)C)OC(N)=O` (stereo not drawn), the ATP level was inactive: 0.0517.

On to `CN(C)[C@@H]1C(=O)C(C(=O)NCN2CCCC2)=C(O)[C@@]2(O)C(=O)C3=C(O)c4c(O)cccc4[C@@](C)(O)[C@H]3C[C@@H]12`, for which the ATP level was inactive: 1.25.

Regarding `CCCCCCCCCCOc1cc2c(O)c(C(=O)OCC)cnc2cc1OCC`, the ATP level was inactive: 0.597.

For the molecule `CN(C)CCN(Cc1ccc(Cl)cc1)c1ccccn1`, the ATP level is inactive: -0.831.

Consider `COc1ccc([C@@H]2Sc3ccccc3N(CCN(C)C)C(=O)[C@@H]2OC(C)=O)cc1`, for which the ATP level was inactive: -17.8.

With `Cc1cn([C@H]2C[C@H](N=[N+]=[N-])[C@@H](CO)O2)c(=O)[nH]c1=O`, the ATP level is inactive: -0.141.

Take `CN(C)CCCC1(c2ccc(F)cc2)OCc2cc(C#N)ccc21` (stereo not drawn): the ATP level is inactive: -0.388.

On to `Cc1onc(-c2ccccc2)c1C(=O)N[C@@H]1C(=O)N2[C@@H]1SC(C)(C)[C@@H]2C(=O)O`, for which the ATP level is inactive: 2.35.

As for `COc1cc2c(cc1OC)C(=O)OC2`, the ATP level is inactive: 1.38.

As to `OCC(O)CN1CCN(c2ccccc2)CC1` (stereo not drawn), the ATP level was inactive: 0.944.

As for `COc1cc(N)c(Cl)cc1C(=O)NC1CCN(CCCOc2ccc(F)cc2)CC1OC` (stereo not drawn), the ATP level was inactive: -3.01.

For `COc1c2c(cc3occ(-c4ccc5c(c4)OCO5)c(=O)c13)OC(C)(C)C=C2`, the ATP level was inactive: 0.217.

For the molecule `CC[C@H](/C=C/[C@@H](C)[C@H]1CC[C@H]2[C@@H]3CCC4=CC(=O)CC[C@]4(C)[C@H]3CC[C@]12C)C(C)C`, the ATP level was inactive: -1.29.

As for `COC1=CC(=O)C[C@@H](C)[C@]12Oc1c(Cl)c(OC)cc(OC)c1C2=O`, the ATP level was inactive: 0.152.
